# According to PubChem BioAssay AID590 (National Center for Advancing Translational Sciences (NCATS), 2007):
# Out of some 59,000 compounds screened, about 6,500 (11%) were called active. Inconclusive results, whose numbers are uncertain, are shown with a selection of clear calls. No stated cut-off is given here; in the data, active means max dye-equivalent concentration above about 10 nM; inconclusive means mostly about 1.1 nM to 9.6 nM; inactive means weaker than that.
# Assay: qHTS Assay for Spectroscopic Profiling in A350 Spectral Region
# Conditions: Compound autofluorescence, 340/450 nm, Alexa 350 dye-equivalents; hits give high values
# Source text: NIH Molecular Libraries Screening Centers Network [MLSCN]
# NIH Chemical Genomics Center [NCGC]
# Occasionally, the artifactual effect may originate from the compounds own spectral or other biophysical properties which generally tend to track its assay concentration. Pre-screening/profiling the library with respect to the compounds spectral properties should help one exclude false positives early on. While the most informative fluorescent profiling data set is obtained by performing a full excitation and emission scan of each well by using a monochromator-based plate reader, such an approach is practical only on a very limited scale as scanning each well requires long time. An alternative approach, applied here, is to perform plate reader scans using selected excitation and emission wavelength pairs to generate a multidimensional relational database that correlates compound concentration and the respective relative fluorescence intensity at a given wavelength set. A standard curve of Alexa 350 (A 350) present on each plate as six-point concentration series, was used to compute a normalized fluorescence response, termed dye-equivalent concentration, for each compound at each concentration.
# NCGC Assay Protocol Summary:
# 100 mM Tris buffer, pH 8.0
# The wells in columns 1 through 4 of a Kalypsys polypropylene 1536-well compound plate were filled with standard solutions of fluorophore corresponding to the spectral region of interest. Solutions of A 350 were placed in the following wells: I1, J1: 3 mM, I2, J2: 300 uM, I3, J3: 30 uM, I4, J4: zero (DMSO), K1, L1: 3 uM, K2, L2: […], K3, L3: 300 nM, K4, L4: zero (DMSO).
# Six uL of buffer were dispensed to 1536-well Greiner black plates. Compounds and dye standards (23 nL) were transferred via Kalypsys PinTool. The plates were incubated for 15 min at room temperature, and then read on ViewLux (Perkin-Elmer) High-throughput CCD imager using 340 nm and 450 nm excitation and emission filter set.
# Keywords: NIH Roadmap, MLSCN, MLI, MLSMR, qHTS, NCGC, A350, A-350, Fluorescent Profiling.
row,SMILES,max dye-equivalent concentration
1,COc1ccc(CNC(=O)CSc2nnc(-c3ccc(NC(C)=O)cc3)n2C)cc1,inconclusive: 1.2 nM
2,O=C1CC(Cc2ccc(Cl)cc2)C(=O)N1c1ccccn1 (stereo not drawn),inconclusive: 1.6 nM
3,CC1CCCCC1NC(=O)C1CCN(S(=O)(=O)N2CCC3(CC2)OCCO3)CC1 (stereo not drawn),inconclusive: 3 nM
4,CCOC(=O)c1sc(NC(=O)c2c(C)nn(Cc3ccccc3)c2C)cc1C,inconclusive: 1.3 nM
5,O=C(Nc1ccc(-c2noc(-c3cccs3)n2)cc1)c1cccnc1,inconclusive: 3.5 nM
6,COC(=O)c1ccc(C(=O)OC)c(NC2=NS(=O)(=O)c3ccccc32)c1,active: 220 nM
7,CC(C)CN1CC2(CCN(C(=O)c3csnn3)CC2)C1,inactive
8,CCCCC(=O)Nc1cccc(-c2nc3ncccc3o2)c1,inconclusive: 1.8 nM
9,CCN(CC)C(=O)c1ccc(COc2ccccc2Br)o1,inconclusive: 1.8 nM
10,CCc1ccccc1OCCCCN1CCCC1,inconclusive: 1.6 nM
11,O=c1cnc2cnc(Nc3ccccc3)nc2n1C1CC1,inactive
12,O=C(CCSCCC(=O)NCCN1CCOCC1)NCCN1CCOCC1,inconclusive: 2.2 nM
13,CC(=O)NCCNc1nc(-c2cccc(NS(C)(=O)=O)c2)nc2ccccc12,inactive
14,COCCn1c(C)cc(C(=O)CSc2ncnc3sc4c(c23)CCC4)c1C,inactive
15,CC(C)(C)NC(=O)C(OC(=O)Cn1nnc(-c2ccc(F)cc2)n1)c1ccncc1 (stereo not drawn),inactive
16,COC1=CC(=O)C[C@@H](C)[C@@]12Oc1c(Cl)c(OC)cc(OC)c1C2=O,inconclusive: 1.9 nM
17,Cc1cccc2cc(CN(Cc3nnnn3Cc3ccccc3)C3CCCC3)c(=O)[nH]c12,inconclusive: 6 nM
18,COc1ccc2nc3c(cc2c1)c(NC(=O)c1cccs1)nn3CC(C)C,inconclusive: 7.3 nM
19,CC(C)C1N(c2ccccc2)C(N)=C(C#N)C1(C#N)C#N (stereo not drawn),inactive
20,CC(C)COC(=O)CCn1[nH]c(=O)c2ccccc2c1=O,inconclusive: 1.7 nM

# Exported with bars between the fields: 2 of the compounds above
row | SMILES | max dye-equivalent concentration
13 | CC(=O)NCCNc1nc(-c2cccc(NS(C)(=O)=O)c2)nc2ccccc12 | inactive
19 | CC(C)C1N(c2ccccc2)C(N)=C(C#N)C1(C#N)C#N (stereo not drawn) | inactive

# Later entries:

row,SMILES,max dye-equivalent concentration
1,Cc1nc(N2CCOCC2)c2oc3ccccc3c2n1,inconclusive: 2.7 nM
2,CCN(CC)CCNC(=O)c1cc(S(C)(=O)=O)ccc1OC,inconclusive: 8.3 nM
3,COc1cccc(NS(=O)(=O)c2ccc3[nH]cc(C(=O)NCCCOC(C)C)c(=O)c3c2)c1,inactive
4,Cc1cc(=O)[nH]c2c(C)c(N)ccc12,active: 870 nM
5,COc1cccc(C2C(C#N)=C(N)Oc3cc(C)[nH]c(=O)c32)c1OC (stereo not drawn),inconclusive: 3.1 nM
6,COC(=O)CCC(=O)c1oc2ccc(Br)cc2c1N,inconclusive: 8.2 nM
7,CCCc1nnc(NC(=O)Cn2c(=O)sc3ccccc32)s1,active: 120 nM
8,O=S(=O)(NCC1CCCO1)c1ccc(S(=O)(=O)N2CCc3ccccc3C2)cc1 (stereo not drawn),inconclusive: 1.6 nM
9,CC1=C(C(=O)N(C)C)C(c2ccc(Cl)c(Cl)c2)NC(=O)N1 (stereo not drawn),inconclusive: 2 nM
10,OC[C@@H]1O[C@@H](n2cnc3c(SCc4ccccc4)ncnc32)[C@@H](O)[C@H]1O,inactive
11,CCC(C)(C)n1nnnc1CN(Cc1cc2cc(OC)ccc2[nH]c1=O)C1CCCC1,active: 84 nM
12,O=C(c1cccc(Cl)c1)N1CCN(C2CCCCCC2)CC1,inactive
13,COCC(=O)N1CCC2(CCCN(c3ccc(-c4ccccc4)cc3)C2)CC1,inactive
14,COc1ccc(-c2nc3cnc(N(C)C)nc3n(C)c2=O)cc1,active: 35 nM
15,CC1=C(C(=O)OCc2ccccc2)C(c2ccccn2)c2c(n(C)c(=O)n(C)c2=O)N1 (stereo not drawn),active: 39 nM
16,O=C(NC1=NCCS1)c1ccc(-c2ccc(Cl)cc2)o1,active: 460 nM
17,O=C1c2ccccc2C(=O)N1CC1c2ccccc2CCN1S(=O)(=O)c1cnc[nH]1 (stereo not drawn),inactive
18,COC(=O)c1cc(-c2c(C)oc3cc(OC(C)C)ccc3c2=O)c(C)o1,inactive
19,Cc1cc(C)n2nc(SCC(=O)c3cc(C)n(-c4cc(C)on4)c3C)nc2n1,inactive
20,CC1=C(C#N)C(C(F)(F)F)(C(F)(F)F)N=C(c2ccco2)N1,inconclusive: 2.6 nM

# Of the compounds above, these have bromine.
row,SMILES,max dye-equivalent concentration
9,CCN(CC)C(=O)c1ccc(COc2ccccc2Br)o1,inconclusive: 1.8 nM
6,COC(=O)CCC(=O)c1oc2ccc(Br)cc2c1N,inconclusive: 8.2 nM

# Next results follow.

row,SMILES,max dye-equivalent concentration
1,COCCn1c(SCC(=O)c2cccc(OC)c2)nnc1-c1ccco1,inconclusive: 1.1 nM
2,CC1CCCCN1C(=O)Cn1cc(C(=O)c2ccco2)c2ccccc21 (stereo not drawn),inconclusive: 3.9 nM
3,Cc1ccc(NC(=O)CN(C)S(=O)(=O)c2cnc[nH]2)cc1C,inconclusive: 2.5 nM
4,Cn1c(-c2ccc(Br)o2)nc2ccccc21,inconclusive: 4.4 nM
5,O=C(Nc1cccc(F)c1)NC1CC2CCCC(C1)N2C1CC1 (stereo not drawn),inconclusive: 1.2 nM
6,CCCc1cc(C(N)=O)c(NC(C)=O)s1,inconclusive: 1.3 nM
7,O=C(NCc1ccco1)c1cc(-c2ccccc2)c(N2CCOCC2)s1,inconclusive: 1.7 nM
8,COc1ccc(-n2c(=O)cnc3cnc(N(C)C)nc32)cc1,inconclusive: 5 nM
9,CCCn1c(CCC(=O)O)ccc1-c1ccc(OC)cc1,active: 400 nM
10,C[C@@H]1C[C@@H]2[C@H]3CCC4=CC(=O)C=C[C@]4(C)[C@]3(Cl)[C@@H](O)C[C@@]2(C)[C@@]1(O)C(=O)CO,inactive
11,COc1ccccc1CN1CC2(CCN(C(=O)c3ccncc3)CC2)C1,inactive
12,N#CCn1c(C2CCCCC2)nc2ccccc2c1=O,inconclusive: 8.6 nM
13,Cc1c2c(n3c(nc4ccccc43)c1C#N)N(Cc1ccccn1)CC2,active: 460 nM
14,O=C1C[C@H]2OCC=C3CN4CC[C@@]5(C(=O)O)[C@H](N1)[C@H]2[C@H]3C[C@H]45,inactive
15,Nc1ccc(C(=O)NCC(=O)O)cc1,inconclusive: 5.8 nM
16,N#C/C(=C(\O)c1ccco1)c1ccccn1,inconclusive: 3 nM
17,O=C(O)c1cc2c(ccc3ccccc32)[nH]1,inconclusive: 4.5 nM
18,Cc1ccc(C)c2[nH]c(=O)c(C(c3nnnn3C3CCCC3)N3CCOCC3)cc12 (stereo not drawn),active: 34 nM
